Reference: US9487486B2, “Derivatives of nicotinic acid N-oxide, their preparation and their use as inhibitors of enzyme 3-hydroxyanthranilate-3, 4-dioxygenase” (UNIVERSITY OF MARYLAND, BALTIMORE, priority 2011, dated 2016)
Some results were stated once for a whole list of compounds, not compound by compound.

Key:
[1] = target: T1, 3-hydroxyanthranilate-3,4-dioxygenase (3HAO) (Homo sapiens, UniProt P46952); assay: In vitro 3HAO inhibition in human brain homogenates; format: biochemical; conditions: human brain homogenate
T1 construct: One hundred μl of healthy human brain homogenate; from tissue; host or cells: healthy human brain homogenate
T1 sequence (P46952 1-286): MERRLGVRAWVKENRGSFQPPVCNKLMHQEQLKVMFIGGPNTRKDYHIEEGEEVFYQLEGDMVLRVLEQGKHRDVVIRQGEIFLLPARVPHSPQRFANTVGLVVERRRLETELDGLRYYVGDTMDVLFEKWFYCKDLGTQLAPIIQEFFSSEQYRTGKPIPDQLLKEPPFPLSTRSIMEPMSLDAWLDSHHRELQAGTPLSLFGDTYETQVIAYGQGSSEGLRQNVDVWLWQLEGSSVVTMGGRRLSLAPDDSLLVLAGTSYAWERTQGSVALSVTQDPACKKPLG
Protocol: (§1) The following procedure has been carried out for all the six compounds prepared according to the Examples 1-6 above.
(§2) One hundred μl of healthy human brain homogenate (1/10 dilution in bidistilled water) were further diluted (1/2, 5 v/v) with a 5 mM MES/NaOH buffer (pH 6.5) and incubated at 37° C. for 1 h in the presence of the radiolabeled substrate[14C]-3-hydroxyanthranilic acid (3.7 μM), ferrous ammonium sulphate (150 μM), ascorbic acid (0.01%). 20 μl of a solution (10 μM) of a compound of the invention were added prior to the addition of the radiolabeled substrate, to a final volume of 200 μl. The enzymatic reaction was stopped by adding 50 μl of 6% perchloric acid. The mixture was centrifuged for 5 min a 12.000 g and the supernatant was applied to a column packed with a cation-exchange resin (Dowex 50W, 0.5×2.0 cm; protonated form). [14C]-quinolinic acid formed by enzymatic reaction was eluted with 1 ml of distilled water. The eluate was added to scintillation liquid (Beckman, Ultima Gold) and radioactivity was measured with a beta-counter.
(§3) The same procedure has been repeated by adding 20 μl of a solution (100 μM) of a compound of the invention and repeated by adding 20 μl of a solution (1000 μM) of a compound of the invention.

[2] = target: T2, 3-hydroxyanthranilate-3,4-dioxygenase (3HAO) (Rattus norvegicus, UniProt P46953); assay: In vitro 3HAO inhibition in rat brain homogenates; format: biochemical; conditions: rat brain homogenate
T2 construct: One hundred μl of control Sprague Dawley rat brain homogenate; from tissue; host or cells: Sprague Dawley rat brain homogenate
T2 sequence (P46953 1-286): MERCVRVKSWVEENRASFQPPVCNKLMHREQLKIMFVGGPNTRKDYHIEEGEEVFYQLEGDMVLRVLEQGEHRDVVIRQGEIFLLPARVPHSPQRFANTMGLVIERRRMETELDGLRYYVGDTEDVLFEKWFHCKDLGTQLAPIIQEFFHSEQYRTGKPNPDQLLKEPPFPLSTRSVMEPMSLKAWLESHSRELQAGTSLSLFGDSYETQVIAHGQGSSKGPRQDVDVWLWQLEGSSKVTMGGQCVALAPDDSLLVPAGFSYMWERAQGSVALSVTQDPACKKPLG
Protocol: as §1
as §2, with “μl of control Sprague Dawley rat brain homogenate” for “μl of healthy human brain homogenate”, “acid (3.7 µM), ferrous ammonium” for “acid (3.7 μM), ferrous ammonium”, “sulphate (150 µM), ascorbic acid” for “sulphate (150 μM), ascorbic acid”, “radiolabeled substrate, for a total” for “radiolabeled substrate, to a final”, “for a total volume of” for “to a final volume of”, “with a is beta-counter.” for “with a beta-counter.”
as §3

| Structure (SMILES) | Inhibition of 3HAO activity [1] | Inhibition of 3HAO activity [2] |
| --- | --- | --- |
| CC(C)c1cc(C(C)C)[n+]([O-])c(N)c1C(=O)O [Compound I6, 2-amino-4,6-diisopropylnicotinic acid N-oxide] | inhibited the activity | inhibited the activity |
| Nc1c(C(=O)O)ccc[n+]1[O-] [Compound I1, 2-aminonicotinic acid N-oxide] | inhibited the activity | inhibited the activity |
| Cc1ccc(C(N)=O)c(N)[n+]1[O-] [Compound I4, 2-amino-6-methylnicotinamide N-oxide] | inhibited the activity | inhibited the activity |
| Cc1cc(-c2ccccc2)c(C(=O)O)c(N)[n+]1[O-] [Compound I5, 2-amino-4-phenyl-6-methylnicotinic acid N-oxide] | inhibited the activity | inhibited the activity |
